## Primary screen of a compound library

From ChEMBL document CHEMBL3988442, “University of Dundee, Small-Polar-MMV Screening Library” (2021).

Mtb cholesterol medium: 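Phenotypic screen: M. tuberculosis growth, cholesterol and DPPC medium, 4 days; the read-out is not stated. Concentration: 50 µM. Higher reads as more growth inhibition (inferred: compounds with an IC50 in retests scored well above the rest). About 69,000 compounds were tested under these conditions; 0.54% (about 370) showed 50% or more at least once.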
Mtb glucose medium: 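Whole-cell growth test on Mycobacterium tuberculosis, read after 3 days in glucose-containing 7H9 medium; the read-out is not stated. Compounds at 50 µM. The record gives no direction; compounds that gave an IC50 in retests scored well above the rest, so higher reads as more growth inhibition. Size under these conditions: about 69,000 compounds, about 760 of them at 50% or above in at least one test.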

Each number is a percent effect as filed. How 0% and 100% were set is not recorded. Most values in the screen are low, and negative values occur. The compounds are a random part of those screened. Two or more numbers in one place are separate tests of the same structure; such repeats can differ widely.

SMILES	Mtb cholesterol medium	Mtb glucose medium
O=C(c1cnc(-c2ncccn2)s1)N1CCCC(n2cccn2)C1 (stereo unspecified)	6.569	2.64
Cc1cnn(CCNCC(O)COc2c(C)ccc(C)c2C)c1 (stereo unspecified)	6.848	19.79
[H][C@]12CC[C@]([H])(CN(Cc3cscn3)C1)N(C(=O)Cc1ccccc1OC)C2	-1.185	25.32
NC(=O)C1Cn2ccnc2C2(CCN(C(=O)c3ccncc3)CC2)O1 (stereo unspecified)	5.807	-7.909
Cc1ncccc1C(=O)Nc1cccc(Cn2ccccc2=O)c1	17.45	-3.005
O=C(NCCc1cscn1)c1coc(CN2CCOCC2)c1	-26.69	-42.57
COc1ccccc1Cc1cc(O)nc(NC(C)CN(C)C)n1 (stereo unspecified)	9.124 and 4.2	-18.97
Cc1ccccc1N1CCN(C(=O)CCc2nncn2C)C(C)C1 (stereo unspecified)	1.986	8.199
Cc1cc(=O)c(C(=O)N2CCCCC2c2ccc(F)cc2)c[nH]1 (stereo unspecified)	-5.132 and 1.006	-7.013
CCn1ccnc1CN1CCCN(C(=O)Cc2ccc(C)cc2)CC1	-9.19	-8.661
O=C(NCCc1cccc(F)c1)C1(n2cnnn2)CCCCC1	35.05	62.84
O=C(CCc1nccs1)N1CCN(c2ccccc2F)CC1	38.28	49.27
O=C(Cc1cnn(-c2ccccc2)n1)NC1CCOCC1	19.91	10.74
COc1cccc(N2C(=O)CC3(CCCNC3)C2=O)c1.Cl (stereo unspecified)	-3.709	7.432
Cc1nc(C)n(CC2CCCN(CCOc3cccc(F)c3)C2)n1 (stereo unspecified)	-5.223	26.32
CCc1nc(C)c(C(=O)N2CCNCC2C(=O)Nc2ccc(C)nc2)o1 (stereo unspecified)	-1.57 and -3.332	-5.048 and 4.894
O=C(c1csnn1)N1CCc2ccccc21	-10.48	7.663 and -4.704
O=C(O)C(F)(F)F.[H][C@@]12CN(Cc3nccs3)C[C@]1([H])C(=O)N(c1ccsc1)C2	-9.141	23.12
CC(=O)N1CCC2(CC1)CN(C(=O)C1CC1)c1ccc(F)cc12	16.23	-8.945
CC(C)(C)OC(=O)N1CCCN(c2nnc(Br)s2)CC1	5.44	0.2114 and -11.86
Cc1cc(CN2CCN(C(=O)c3sccc3C3CC3)CC2)no1	12.94	-2.194
CN(CC(=O)NCCC#N)C(c1ccccc1)c1ccccc1	-33.21	-4.906 and -37.28
Cc1csc(S(=O)(=O)N2CCN(C)C3(CCC(=O)N(C)CC3)C2)c1 (stereo unspecified)	5.944	-0.8548 and -8.995
Cc1ccoc1C(=O)N1CCCC(CNS(C)(=O)=O)C1 (stereo unspecified)	-33.3	6.372
CCC(=O)N1CCC(c2nc(N3CCCCC3)ncc2S(C)(=O)=O)CC1	2.124 and 2.699	-21.49
CCc1noc(C(C)N2CCN(Cc3nnc(C4CC4)o3)CC2)n1 (stereo unspecified)	11.8	3.633
CCn1ccnc1-c1nccn1-c1ccccc1CN1CCOCC1	-8.613	-18.96
Cc1noc(C(C)N2CCN(CCC(=O)N3CCCCC3)CC2)n1 (stereo unspecified)	-8.681	-14.22 and 14.27
COCc1nnc(C(=O)N2CC(N3CCCCC3)C2)o1	3.752 and -4.452	10.77
O=C(COc1coc(CN2CCOCC2)cc1=O)Nc1ccccc1F	-19.59	-15.53
Cc1ccc(O)c(CNCC(C)c2nc3ccccc3o2)n1 (stereo unspecified)	-18.16	-24.52
Cc1cc(C)n(CC2CCCN2CC(=O)Nc2nnc(C)s2)n1 (stereo unspecified)	-5.232	-30.52
C[C@@H]1CN(Cc2cccnc2)C[C@]12CCN(CCN1CCCC1)C2=O.O=C(O)C(F)(F)F.O=C(O)C(F)(F)F.O=C(O)C(F)(F)F	-2.333 and -2.597	-25.6
Cc1cc(C(=O)N2CCC(c3nccn3CCCN(C)C)CC2)no1	-25.15	-9.857 and 0.9723
O=C(O)C(F)(F)F.O=C(O)C(F)(F)F.[H][C@@]12C[C@@H](Oc3cccc(F)c3)CN1CCN(C(=O)Cc1ccccn1)C2	-28.72	-32.54
CS(=O)(=O)N1CCC2(CC1)CN(CCn1cccn1)C(=O)CO2	-19.4	-5.98 and -22.99
COc1c(F)cccc1C(=O)N(C)Cc1nc(-c2ccccn2)no1	-8.417	5.571 and 2.039
CNc1ccnc(N2CCC(c3nnc(CN4CCCC4)n3C)CC2)n1	-39.24 and 2.899	-6.949 and -39.29
CN(Cc1cc2n(n1)CCNC2)Cc1cc(-c2ccccn2)no1	14.79	17.54
CCS(=O)(=O)NC(C(=O)NC)c1ccc(F)c(F)c1 (stereo unspecified)	-1.739 and 17.67	3.541
CNS(=O)(=O)CCn1cc(-c2ccc(NC(C)=O)cc2)nn1	-37.24	-15.49
COc1ccc(OCCN(C)c2cc(C)nc(N)n2)cc1	2.314	10.13
O=C(O)C(F)(F)F.O=C(O)C(F)(F)F.[H][C@]12CCCN(Cc3ccncc3)[C@@]1([H])CN(C(=O)c1ccco1)C2	-20.55	-34.24
CN(Cc1nnc(C2CCC2)o1)C(C(N)=O)c1cccc(F)c1 (stereo unspecified)	0.7654	31.79
Cc1cccc2[nH]cc(CC(=O)N3CCC(Nc4cccnn4)CC3)c12	-31.02	-20.91
O=C(c1cccs1)N1CCc2nnc(COc3cncnc3)n2CC1	4.062	-5.435 and -16.09
COc1ccccc1C1(CNc2nnc(C)c(C)c2C#N)CCOCC1	17.54	-1.802 and 23.33
CSCCNC(=O)c1coc(COc2ccc3sc(C)nc3c2)n1	43.53 and 20.25	47.96
CCOC(=O)Cn1c(=O)c(OCC)nc2cnccc21	-21.7	-17.22
Cc1sc2nc(CCN)nc(N3CC(N4CCCCC4)C3)c2c1C	-2.506	15.37
CC(C)CN1CCc2c(CN(C)Cc3ccco3)cncc2C1.Cl.Cl.Cl	-16.01	-30.09
COCCC(=O)N[C@H]1CN(c2nc(C)c3c(n2)CCCC3)C[C@@H]1C1CC1	-0.2994	16.35 and -1.702
COc1cc(N2CC[C@H](O)[C@@H]2Cc2ccccc2)ncn1	-44.08	-37.57
O=C(O)C(F)(F)F.O=C(O)C(F)(F)F.[H][C@@]12CN(Cc3cccnc3)C[C@]1([H])CN(C(=O)c1cnc(C)cn1)C2	-5.602	-2.535
CCc1ccc(CNC(=O)N2CCN(Cc3cc(C)on3)CC2)s1	10.54	17.44
O=C(O)C(F)(F)F.O=C(O)C(F)(F)F.[H][C@@]12CCN(Cc3ccoc3)C[C@]1([H])OCCN(Cc1cccnc1)C2=O	-16.18	-35.32
CCC(C(=O)N(C)Cc1cc(C2CC2)[nH]n1)n1cccn1 (stereo unspecified)	-6.677	-22.51
CCSCc1ccc(C(=O)N2CCCN(CC)CC2)cc1	-3.584 and -1.803	-21.67
CN(C)c1ccc(C(=O)N2Cc3cnc(C(C)(C)C)nc3C2)cc1	-3.282 and 0.4242	16.3
CN(C)[C@H]1C[C@@H](Cc2cc(CO)on2)C1(C)C	-9.909	15.7 and -0.2501

Once more, the final 4:

{"smiles": "CCC(C(=O)N(C)Cc1cc(C2CC2)[nH]n1)n1cccn1", "stereo": "stereo unspecified", "Mtb cholesterol medium": -6.677, "Mtb glucose medium": -22.51}
{"smiles": "CCSCc1ccc(C(=O)N2CCCN(CC)CC2)cc1", "Mtb cholesterol medium": "-3.584 and -1.803", "Mtb glucose medium": -21.67}
{"smiles": "CN(C)c1ccc(C(=O)N2Cc3cnc(C(C)(C)C)nc3C2)cc1", "Mtb cholesterol medium": "-3.282 and 0.4242", "Mtb glucose medium": 16.3}
{"smiles": "CN(C)[C@H]1C[C@@H](Cc2cc(CO)on2)C1(C)C", "Mtb cholesterol medium": -9.909, "Mtb glucose medium": "15.7 and -0.2501"}